Experimental data from PubChem BioAssay AID2685 (National Center for Advancing Translational Sciences (NCATS), 2010).
Some of the results follow. These are further read-outs of the screen, such as a control signal, another cell line or another target. No call is given for them. Compounds called inactive in the main read-out are mostly missing here. Potencies come from curve fits of mixed quality, noted in brackets.

Assay: qHTS Assay for Lipid Storage Modulators in Drosophila S3 Cells;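 as to cell number change: cells counted by Cell Tracker Red CMTPX staining in the red channel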
Conditions: BODIPY lipid droplet fluorescence, 18-24 h; for cell number change: measured here: cell count max response, cells fed with added oleic acid
Outline: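 Laser-scanning cytometry quantifies lipid droplet accumulation (500–530 nm total intensity; droplet/cell object ratio) in oleic acid-fed (400 uM added) Drosophila S3 cells treated with a concentration series. 20 uM Triacsin C defined 100% inhibition.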

[1] = measured here: cell number channel AC50, cells fed with added oleic acid
[2] = measured here: lipid fluorescence (Fed channel) AC50, cells fed with added oleic acid

SMILES	cell number change [%]	AC50 [1]	AC50 [2]
Cc1nn(-c2ccccc2)c2c1C(c1ccc(Cl)cc1)N(c1ccccc1)C(=O)N2 (stereo not drawn)	45.8	3.26 µM [falling, partial curve]	6.51 µM [falling, single point]
CCOC(=O)Cc1nnn(CC(=O)OCC)n1	22.8		5.8 µM [rising, single point]
C=CCn1c(Cc2cccs2)nnc1SCC(=O)Nc1ccc(C(=O)OCC)cc1	91.5	5.17 µM [rising, full curve]	1.16 µM [rising, full curve, poor fit]
O=C(NNC(=O)c1cc([N+](=O)[O-])ccc1Cl)c1cccnc1	-3.68	0.0058 µM [falling, full curve, poor fit]	
O=C(O)c1ccc(Cl)c(NC(=O)C2CCCN2S(=O)(=O)c2cccc3nsnc23)c1 (stereo not drawn)	-12.8		5.17 µM [falling, full curve]
Cc1ccc(OCC(=O)NNC(=S)NC(=O)C2CCCCC2)c(C)c1	5.95		1.16 µM [rising, full curve]
CCc1nnc(NC(=O)c2ccc(S(=O)(=O)N3CCCCC3C)cc2)s1 (stereo not drawn)	0.0646		6.51 µM [rising, single point]
CS(=O)(=O)N1CCC(C(=O)O)CC1	24.3		6.51 µM [falling, single point]
CCOC(=O)CSc1nnc(-c2ccc(Cl)cc2Cl)o1	-203	23.1 µM [falling, single point]	29.1 µM [falling, single point]
O=C(CSc1ccc(Cl)cc1)N1CCN(c2ccc([N+](=O)[O-])cc2Cl)CC1	-22.5		9.2 µM [rising, partial curve, poor fit]
CN(Cc1nc2ccccc2c(=O)[nH]1)C(=O)c1ccc(S(=O)(=O)N(C)C)cc1	74.2	13 µM [rising, partial curve]	
Cc1ccc(OCC(O)CN2C(=O)NC(C)(C)C2=O)cc1C (stereo not drawn)	4.72		18.4 µM [falling, partial curve]
CN(c1ccccc1)S(=O)(=O)c1ccc(C(=O)NCC2CCCO2)cc1 (stereo not drawn)			6.51 µM [falling, partial curve, poor fit]
CCn1c(SCC(=O)NNC(=O)Cc2ccccc2)nnc1-c1ccncc1	5.76		1.64 µM [falling, partial curve]
S=C1CCSc2ccc(Cl)cc2N1	4.22		0.164 µM [rising, full curve, poor fit]
Cc1ccccc1Cn1c(CN2CCN(c3ccc(F)cc3)CC2)nc2c1c(=O)n(C)c(=O)n2C	-0.195		0.103 µM [rising, partial curve, poor fit]
O=C(Nc1ccccn1)c1cc(-c2cccc(Cl)c2)nc2ccccc12	0.615	1.16 µM [falling, full curve]	0.58 µM [falling, full curve]
COc1ccc(C(=O)CCC(=O)Nc2cccnc2)c(OC)c1	-6.25		25.9 µM [rising, single point]
O=C(Nc1ccccc1)Nc1csc2ccccc12	-29.5		16.4 µM [falling, single point]

SMILES	cell number change [%]	AC50 [1]	AC50 [2]
C=CCn1c(SCC(=O)Nc2sccc2C(N)=O)nc2ccccc2c1=O	-60.7		0.13 µM [rising, full curve, poor fit]
COC(=O)c1cccc(NC(=S)NCCC2=CCCCC2)c1	-13.6		0.103 µM [falling, full curve, poor fit]
CC(/C=C/c1ccccc1)=N\Nc1nc2c(c(=O)[nH]c(=O)n2C)n1CCO	2.31		2.31 µM [rising, partial curve, poor fit]
COC(=O)C1=C(C)N(C)C(C)=C(C(=O)OC)C1c1ccncc1	19.5		20.6 µM [rising, single point]
COc1ccc(CC(=O)NNS(=O)(=O)c2ccccc2[N+](=O)[O-])cc1	14.5	0.0326 µM [rising, full curve, poor fit]	
OCCN(CCCn1c(-c2ccncc2)nc2ccccc21)c1nc(CN2CCCCC2)cs1	12.3		3.66 µM [falling, full curve, poor fit]
CSc1cccc(NS(=O)(=O)c2ccc(C(C)=O)cc2)c1	-9.36		4.11 µM [falling, single point]
O=[N+]([O-])c1ccccc1N/N=C/c1c[nH]c2ccccc12	-98	20.6 µM [falling, partial curve]	
CCOC(=O)Cc1csc(NC(=O)c2sc3nc4ccc(CC)cc4cc3c2N)n1	104	20.6 µM [rising, partial curve]	1.46 µM [falling, partial curve]
Cc1c(NC(=O)c2cc(-c3ccc(Br)cc3)on2)c(=O)n(-c2ccccc2)n1C	23		
CCN(CC)C(=O)c1[nH]cnc1C(=O)Nc1ccc(C)cc1	-22.3		0.13 µM [rising, single point]
CCOC(=O)/C(C#N)=C1/C=Cc2ccccc2N1CC	-26.2		
CCOC(=O)c1cc(-c2ccccc2)sc1NC(=O)CN1C(=O)NC(CC)(c2ccccc2)C1=O (stereo not drawn)	49	2.91 µM [rising, full curve]	4.11 µM [rising, partial curve]
O=C(CSc1nnc2ccccn12)Nc1ccccc1C(=O)NC1CC1			18.4 µM [rising, partial curve, poor fit]
CCOC(=O)c1sc2nc3c(SCCC(=O)O)cc(C(=O)c4cc(OC)ccc4O)cn3c(=O)c2c1C	9.94		
CCN1CCN(CC(=O)N2N=C(c3cccs3)CC2c2ccc(C)cc2)C(=O)C1=O (stereo not drawn)	3.69	0.00461 µM [falling, full curve, poor fit]	0.00461 µM [falling, full curve, poor fit]
CC(C)N(C(=O)NC(=O)Nc1ccc(S(=O)(=O)N2CCCC2)cc1)S(C)(=O)=O	-19.8		
CC(C)(C)c1ccccc1NC(=O)c1ccc(-n2cncn2)c([N+](=O)[O-])c1	31.2	29.1 µM [rising, single point]	
CCn1c(SCC(=O)Nc2nccs2)nnc1C1CC1	-6.35		0.13 µM [rising, full curve]

Reprinted at random: 2 records from the list, in no set order.
SMILES	cell number change [%]	AC50 [1]	AC50 [2]
C=CCn1c(SCC(=O)Nc2sccc2C(N)=O)nc2ccccc2c1=O	-60.7		0.13 µM [rising, full curve, poor fit]
COC(=O)c1cccc(NC(=S)NCCC2=CCCCC2)c1	-13.6		0.103 µM [falling, full curve, poor fit]

Going on with the list.

SMILES	cell number change [%]	AC50 [1]	AC50 [2]
CCn1cc(C(=O)NCCc2ccccc2)c(=O)c2cc(S(=O)(=O)N(C)C)ccc21	9.56		0.58 µM [falling, full curve]
CCOC(=O)c1sc(NC(=O)C(C)Sc2nc(N)cc(=O)[nH]2)nc1C (stereo not drawn)	62.3	4.61 µM [rising, full curve]	
Cc1ccccc1NC(=O)CSc1n[nH]c(-c2ccccn2)n1	-26.2		29.1 µM [falling, partial curve]
CCc1ccc(CNC(=O)C2CC(=O)N(CCc3ccc(C)cc3)C2)cc1 (stereo not drawn)	76.6	23.1 µM [rising, partial curve]	0.00461 µM [rising, full curve, poor fit]
CCOc1cccc2sc(N(CCN(CC)CC)C(=O)c3ccc(S(=O)(=O)N4CCCCC4)cc3)nc12	-6.95		0.184 µM [falling, full curve, poor fit]
CC(=O)OCCCN1C(=O)c2cccc3cc(Br)cc(c23)C1=O	-26		29.1 µM [falling, single point]
CCOC(=O)CN(C(=O)CSc1nnc2c(n1)[nH]c1ccc(F)cc12)c1ccccc1	-68.6	4.11 µM [falling, partial curve]	2.06 µM [falling, full curve]
CC(Oc1ccc(Cl)cc1Cl)/C(N)=N/O (stereo not drawn)	0.504		0.00461 µM [falling, full curve, poor fit]
COC(=O)CSc1nnc2c3c4c(sc3nc(-n3nc(C)cc3C)n12)COC(C)(C)C4	3.54		
COCCn1c(=NC(=O)c2ccc(S(=O)(=O)N3CCc4ccccc4C3)cc2)sc2cc(OC)ccc21	34.5	2.59 µM [rising, full curve]	2.06 µM [rising, full curve]
COC(=O)c1ccc(NC(=O)C(=O)c2c[nH]c3ccccc23)cc1	23.1		16.4 µM [rising, partial curve, poor fit]
Cc1cccc(OCC(=O)NNC(=O)c2ccc3nc[nH]c3c2)c1	-7.64		0.00461 µM [rising, full curve, poor fit]
O=C1CS/C(=C/C(=O)c2cccc(Cl)c2)N1	40.9	2.31 µM [rising, full curve]	6.51 µM [rising, single point]
O=C(Cc1csc(-c2ccc(F)cc2)n1)Nc1cccc(S(=O)(=O)NC2=NCCC2)c1	15.3		20.6 µM [falling, single point]
CN(C(=O)c1ccc2c(c1)OCO2)C1CCS(=O)(=O)C1 (stereo not drawn)	-43.7	11.6 µM [falling, partial curve, poor fit]	23.1 µM [falling, partial curve]
CCOC(=O)c1c(NC(=O)CN2C(=O)NC3(CCCC3)C2=O)sc(C)c1CC	-21.9		
CCN(CC)c1cc(C)c2cc(NC(=O)c3ccccc3F)ccc2n1	16.7		
CCOC(=O)Nc1nnc(-c2cccc(OC)c2)s1	65.8	29.1 µM [rising, single point]	
CCN(CC)S(=O)(=O)c1ccc(N2CCOCC2)c(NC(=O)c2ccc(F)cc2)c1	45.5	32.6 µM [rising, single point]	20.6 µM [rising, single point]
